Test results as given in patent US20220312767A1, “PYRIDAZINE COMPOUNDS AND HERBICIDES” (Nippon Soda Co., Ltd., priority 2019, published 2022).
Some of these results come from one statement about several compounds together.

Tested on: Abutilon theophrasti
Assay: Foliage treatment test (Test Example 1), foliage spray
Assay type: in vivo
Conditions: 250 g per hectare, three weeks after, fresh grass mass of aerial part vs untreated

COC(=O)OC(C)Oc1c(-c2ccc(C(F)(F)F)cc2S(C)(=O)=O)cnn(C)c1=O (stereo not shown) [Compound A-4, methyl (1-((2-methyl-5-(2-(methylsulfonyl)-4-(trifluoromethyl)phenyl)-3-oxo-2,3-dihydropyridazin-4-yl)oxy)ethyl) carbonate]
Herbicidal ratio against Abutilon theophrasti: ≥ 90%
